Experimental data: PubChem BioAssay AID1508600 (Functional Genomics Laboratory (NCATS/FGL), 2020)
In all, about 53,000 sequences went through this assay and about 3,700 (7%) were called active.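 How the source made its calls: active means gene knockdowns whose robust z-score for IL-1 alpha signal is at least 2 or at most -2, so actives lie on both sides; inactive means the rest.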 The list shows a part of the results.

assay: Components of the Cytosolic LPS Sensing Pathway: Gene Identification via Genome-wide siRNA Screen; conditions: RAW264.7 macrophages, IL-1a HTRF, actives lie on both sides, screened at 100 nM (by protocol), cells primed 5 h with Pam3CSK4 first;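 further: robust z of the log signal after scaling to non-targeting control siRNA wells of the plate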
How it was run: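 Supernatant IL-1a by HTRF from RAW264.7 cells primed with Pam3CSK4 (5 hours) and transfected with LipidA (24 hour) after 48h siRNA knockdown at 100 nM; cell viability checked with CellTiter-Glo.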

z-score, inactive:
CCAGAAGUGAUGGUUCAGUTT against Selenoh 0.577, GGAAGAAAUCAAGGUAUCATT against 9330155M09Rik -1.13, GGCAAUCCCACAUCCUCGATT against Ergic2 -1.45, GGCCAUUACGAUGAAGAUUTT against Zpld1 -1.92, GGACAAAGAAAACAGCUGUTT against Klrb1f -0.718, CCCAAGUGAGUAAUAUACUTT against Abt1 -0.21, GCUGCCUAUAUUCAUUUAATT against Zhx3 0.745, GGCCACACAGAUUAUCUUGTT against Vmn1r24 -0.356, CGCAGUCAAAUUUGAAAGUTT against Car5b 0.775, GGUAAAGAAAUGAGGACCGTT against Tas2r130 -0.0477, GGAUCCUGCCUUAAGUCAATT against Gadd45a 0.92, GGUGGUCUAUUUCACCACGTT against Slc6a20b -0.588, GCUCGUUUUCUAUUGAAGUTT against Babam2 0.672, GCAUAGUCUUGUUAACCAGTT against Poldip3 -0.689, GCCUUUUCAAUCCUAUGUUTT against Olfr441 -0.889, GGAACAGUCCUACUGAUAUTT against Cdkn1a -0.271, GGAUGUACUAGCUGAGAUUTT against Cpne9 0.409, GGUUUUAACAUGAGCAGCCTT against Ofcc1 -0.369, GGAGAUCAGUUAACCCUACTT against Crisp2 -0.663, GGAAAAGAGAGAAAAUGUUTT against Ubn2 -0.575, GGGAAUCAUUAAAUAGGAUTT against Arhgap26 -0.163, GGGAAGUUUCGCUACCUUGTT against Kcnk18 0.44, GGGUCAAGACAAAUCUUCCTT against Snx3 0.778, GGCAAAAAUCAUUGUCAUUTT against Gk5 -1.6, CGCGCUAAAGGAGAAGUUUTT against Wnt4 0.995, GGUUCAUGAUUUUUCAAGCTT against Rtl6 -0.319, GGAAGUGGAAAUGAGGACATT against Tbc1d9b 0.122, GGACAGAAUGGACCUCUUCTT against Ube2o -0.0943, GGCACUGUUGUGGCUGAAATT against Coro1a 1.47
